Laboratory results: PMC3359979
These are yes or no findings as the source states them, for the method shown. Some entries that bind do so weakly or less than the wild type.

The chains behind the UniProt entries cited, without tags or fusion partners. Where a name states a change or a piece, a line headed by the entry shows the natural chain unless it says otherwise. Residues count along the entry.
UniProt P11978: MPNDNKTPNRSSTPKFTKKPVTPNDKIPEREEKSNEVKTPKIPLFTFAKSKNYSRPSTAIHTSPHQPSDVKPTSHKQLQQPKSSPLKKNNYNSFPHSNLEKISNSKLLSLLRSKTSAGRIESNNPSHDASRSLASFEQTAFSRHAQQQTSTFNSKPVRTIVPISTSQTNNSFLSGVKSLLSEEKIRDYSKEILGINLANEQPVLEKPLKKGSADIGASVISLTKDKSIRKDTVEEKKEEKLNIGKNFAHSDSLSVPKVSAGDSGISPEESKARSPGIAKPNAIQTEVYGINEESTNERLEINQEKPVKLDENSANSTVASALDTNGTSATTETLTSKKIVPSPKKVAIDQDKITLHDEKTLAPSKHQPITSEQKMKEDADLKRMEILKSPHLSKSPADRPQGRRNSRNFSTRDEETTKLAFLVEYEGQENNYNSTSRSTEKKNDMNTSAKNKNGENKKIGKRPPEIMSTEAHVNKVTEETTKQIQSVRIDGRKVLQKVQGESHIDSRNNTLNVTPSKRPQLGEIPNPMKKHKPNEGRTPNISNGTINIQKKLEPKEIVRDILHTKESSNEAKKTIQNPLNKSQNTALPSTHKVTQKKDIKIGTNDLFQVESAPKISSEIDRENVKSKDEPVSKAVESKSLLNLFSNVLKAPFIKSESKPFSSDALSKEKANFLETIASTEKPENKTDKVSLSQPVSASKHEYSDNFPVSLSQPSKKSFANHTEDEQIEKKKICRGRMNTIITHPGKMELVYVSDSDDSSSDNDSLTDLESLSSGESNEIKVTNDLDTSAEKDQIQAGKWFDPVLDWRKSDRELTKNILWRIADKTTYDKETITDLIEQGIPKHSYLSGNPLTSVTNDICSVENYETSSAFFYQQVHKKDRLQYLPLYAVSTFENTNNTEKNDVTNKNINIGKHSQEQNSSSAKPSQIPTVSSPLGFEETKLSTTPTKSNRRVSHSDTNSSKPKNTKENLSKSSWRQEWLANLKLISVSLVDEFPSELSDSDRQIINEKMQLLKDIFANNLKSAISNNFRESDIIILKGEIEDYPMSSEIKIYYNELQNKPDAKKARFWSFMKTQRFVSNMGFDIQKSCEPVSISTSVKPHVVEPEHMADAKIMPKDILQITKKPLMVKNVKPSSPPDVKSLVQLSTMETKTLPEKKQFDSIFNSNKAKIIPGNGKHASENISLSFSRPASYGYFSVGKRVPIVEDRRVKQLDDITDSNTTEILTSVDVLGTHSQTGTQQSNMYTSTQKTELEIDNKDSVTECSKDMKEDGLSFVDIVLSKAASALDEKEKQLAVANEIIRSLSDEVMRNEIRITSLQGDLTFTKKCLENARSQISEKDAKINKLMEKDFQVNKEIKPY
Sir4C (Sir4 C-terminal domain, residues 747-1358): residues 747-1358 of P11978
UniProt P06701: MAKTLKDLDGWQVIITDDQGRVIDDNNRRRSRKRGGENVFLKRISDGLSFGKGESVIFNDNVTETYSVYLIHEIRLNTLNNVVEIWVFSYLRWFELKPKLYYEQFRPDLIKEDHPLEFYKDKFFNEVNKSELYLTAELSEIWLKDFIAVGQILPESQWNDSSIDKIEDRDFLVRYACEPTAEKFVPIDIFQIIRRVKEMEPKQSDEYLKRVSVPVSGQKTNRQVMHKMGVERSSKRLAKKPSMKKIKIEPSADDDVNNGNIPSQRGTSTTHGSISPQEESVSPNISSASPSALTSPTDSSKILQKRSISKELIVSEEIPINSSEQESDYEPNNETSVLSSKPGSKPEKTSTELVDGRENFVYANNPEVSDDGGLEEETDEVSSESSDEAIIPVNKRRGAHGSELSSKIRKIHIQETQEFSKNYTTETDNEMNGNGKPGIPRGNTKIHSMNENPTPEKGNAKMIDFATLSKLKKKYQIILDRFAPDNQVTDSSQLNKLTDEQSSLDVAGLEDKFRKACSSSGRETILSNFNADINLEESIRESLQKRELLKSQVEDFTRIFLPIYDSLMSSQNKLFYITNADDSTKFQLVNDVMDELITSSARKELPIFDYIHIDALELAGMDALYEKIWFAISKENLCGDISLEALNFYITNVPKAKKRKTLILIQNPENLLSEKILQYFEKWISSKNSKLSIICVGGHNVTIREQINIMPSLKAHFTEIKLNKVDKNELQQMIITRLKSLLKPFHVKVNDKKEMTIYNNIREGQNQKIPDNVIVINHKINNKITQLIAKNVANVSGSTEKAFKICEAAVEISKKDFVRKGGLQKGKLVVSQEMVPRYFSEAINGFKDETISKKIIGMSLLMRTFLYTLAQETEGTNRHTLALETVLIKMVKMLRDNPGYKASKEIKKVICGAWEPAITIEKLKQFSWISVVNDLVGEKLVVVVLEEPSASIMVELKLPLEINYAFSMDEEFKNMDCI
UniProt P06700: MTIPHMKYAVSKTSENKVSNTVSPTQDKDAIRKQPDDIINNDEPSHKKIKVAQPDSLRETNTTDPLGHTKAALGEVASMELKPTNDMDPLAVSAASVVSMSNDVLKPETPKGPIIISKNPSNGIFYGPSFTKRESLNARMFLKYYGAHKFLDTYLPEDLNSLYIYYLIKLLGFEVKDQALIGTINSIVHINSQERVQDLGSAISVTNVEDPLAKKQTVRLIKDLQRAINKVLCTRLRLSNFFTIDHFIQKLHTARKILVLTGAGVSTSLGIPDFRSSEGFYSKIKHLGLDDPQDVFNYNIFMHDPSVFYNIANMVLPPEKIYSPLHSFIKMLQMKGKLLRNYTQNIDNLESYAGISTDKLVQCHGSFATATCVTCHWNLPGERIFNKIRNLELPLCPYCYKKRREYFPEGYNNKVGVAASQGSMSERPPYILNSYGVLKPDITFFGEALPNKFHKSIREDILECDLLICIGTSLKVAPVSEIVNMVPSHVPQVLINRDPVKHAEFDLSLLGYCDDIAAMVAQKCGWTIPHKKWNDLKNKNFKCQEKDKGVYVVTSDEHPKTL

How the values were obtained:
[1] = target: T1, Sif2, two-hybrid bait (S. cerevisiae) (UniProt P38262); test: two-hybrid; yeast two-hybrid in strain GA181; Sir4N, Sir4N^GG or Sir4N^DD as prey; Yku80, Sir1 or Sif2 as bait; beta-galactosidase read-out
T1 sequence: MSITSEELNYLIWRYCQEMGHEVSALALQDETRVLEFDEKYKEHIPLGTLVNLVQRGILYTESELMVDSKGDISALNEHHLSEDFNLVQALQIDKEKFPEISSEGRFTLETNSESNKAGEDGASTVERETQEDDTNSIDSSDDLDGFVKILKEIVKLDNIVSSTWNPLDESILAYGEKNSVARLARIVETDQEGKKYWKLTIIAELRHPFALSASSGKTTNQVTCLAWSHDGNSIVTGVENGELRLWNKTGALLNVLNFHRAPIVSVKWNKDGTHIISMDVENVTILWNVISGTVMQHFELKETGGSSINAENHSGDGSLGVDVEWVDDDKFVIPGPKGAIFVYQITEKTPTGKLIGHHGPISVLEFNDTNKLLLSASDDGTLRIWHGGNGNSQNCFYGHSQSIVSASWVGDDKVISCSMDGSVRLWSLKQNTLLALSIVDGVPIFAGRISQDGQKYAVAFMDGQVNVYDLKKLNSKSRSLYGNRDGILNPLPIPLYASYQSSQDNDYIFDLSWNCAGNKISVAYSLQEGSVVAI

[2] = target: T2, Sir1, two-hybrid bait (S. cerevisiae) (UniProt P21691); test: as above
T2 sequence: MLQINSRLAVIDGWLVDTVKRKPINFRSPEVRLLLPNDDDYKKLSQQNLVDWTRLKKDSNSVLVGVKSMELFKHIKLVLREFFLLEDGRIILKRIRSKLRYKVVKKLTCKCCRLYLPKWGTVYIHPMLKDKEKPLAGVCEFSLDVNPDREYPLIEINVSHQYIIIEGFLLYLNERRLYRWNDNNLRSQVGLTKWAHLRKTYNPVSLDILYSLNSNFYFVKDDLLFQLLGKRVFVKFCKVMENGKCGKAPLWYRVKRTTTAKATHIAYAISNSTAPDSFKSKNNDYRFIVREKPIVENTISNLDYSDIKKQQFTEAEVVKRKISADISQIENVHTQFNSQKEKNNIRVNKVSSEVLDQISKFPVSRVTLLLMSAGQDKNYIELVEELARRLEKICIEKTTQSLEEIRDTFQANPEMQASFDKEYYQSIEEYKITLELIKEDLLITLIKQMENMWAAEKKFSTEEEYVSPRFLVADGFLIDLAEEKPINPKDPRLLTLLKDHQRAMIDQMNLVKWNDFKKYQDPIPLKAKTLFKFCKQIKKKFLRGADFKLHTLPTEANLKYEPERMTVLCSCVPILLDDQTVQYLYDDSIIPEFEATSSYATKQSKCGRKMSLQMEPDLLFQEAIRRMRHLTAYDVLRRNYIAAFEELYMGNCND

[3] = target: T3, Yku80, two-hybrid bait (S. cerevisiae) (UniProt Q04437); test: as above
T3 sequence: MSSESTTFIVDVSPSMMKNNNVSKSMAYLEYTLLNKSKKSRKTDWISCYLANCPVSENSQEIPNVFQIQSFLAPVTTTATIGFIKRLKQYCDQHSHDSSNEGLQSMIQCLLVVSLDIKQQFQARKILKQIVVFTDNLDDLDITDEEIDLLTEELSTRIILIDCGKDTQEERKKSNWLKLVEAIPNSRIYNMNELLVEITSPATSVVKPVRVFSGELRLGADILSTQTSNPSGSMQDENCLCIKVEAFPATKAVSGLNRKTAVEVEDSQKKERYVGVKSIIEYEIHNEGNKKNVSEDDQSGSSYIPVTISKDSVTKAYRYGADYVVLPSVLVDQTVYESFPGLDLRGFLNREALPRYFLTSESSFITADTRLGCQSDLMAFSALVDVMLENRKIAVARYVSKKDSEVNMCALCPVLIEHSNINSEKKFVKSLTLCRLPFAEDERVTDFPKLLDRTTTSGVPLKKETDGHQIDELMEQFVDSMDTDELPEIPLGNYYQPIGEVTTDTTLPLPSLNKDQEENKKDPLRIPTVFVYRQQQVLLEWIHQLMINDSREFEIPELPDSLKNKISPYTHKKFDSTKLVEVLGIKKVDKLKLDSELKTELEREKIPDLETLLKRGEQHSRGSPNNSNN

[4] = target: Sir4 (full-length) (S. cerevisiae) (UniProt P11978); test: co-purification of co-expressed proteins; Sir proteins co-expressed in baculovirus-infected insect sf21 cells and purified together (calmodulin column among the steps); SDS-PAGE, Coomassie
[5] = target: Sir4C (Sir4 C-terminal domain, residues 747-1358) (S. cerevisiae) (UniProt P11978); test: as above
[6] = target: Sir4 (full-length) (S. cerevisiae) (UniProt P11978); test: co-sedimentation; glycerol density gradient sedimentation of the purified complex: 200 ul calmodulin-column eluate on a 4 ml 5-25% glycerol gradient, 10 mM TEA pH8, 150 mM sodium chloride, 0.01% Tween-20, 18 h at 4°C; fractions on SDS-PAGE, SyproRuby; both purified
[7] = target: Sir4C (Sir4 C-terminal domain, residues 747-1358) (S. cerevisiae) (UniProt P11978); test: as above

Measured: binding

Sir4N^GG (Sir4N S63G S84G), two-hybrid prey (from UniProt P11978 1-270) (domain or fragment)
binds: [1] | [2] | [3]

Sir4N^DD (Sir4N S63D S84D), two-hybrid prey (from UniProt P11978 1-270) (domain or fragment)
binds: [1] | [2] | [3]

Sir3 (from UniProt P06701 1-978)
binds: [4] | [5] | [6] | [7]

Sir2 (from UniProt P06700 1-562) (enzyme)
binds: [4] | [5] | [6] | [7]

Sir4N (Sir4 N-terminal domain, residues 1-270), two-hybrid prey (from UniProt P11978 1-270) (domain or fragment)
binds: [1] | [2] | [3]
